PubChem BioAssay (NCATS)
The shares of active, inactive and inconclusive entries below differ from those in the screen. For some of these results: Where the call is inconclusive, the potency comes from a doubtful curve fit. For some of these results: “Side channel” marks fits to a control or component signal instead of the main read-out. Activity calls are given as the source filed them. Unless noted, the call rests on the fitted dose curve.

The chains behind the UniProt entries cited, without tags or fusion partners. Where a name states a change or a piece, a line headed by the entry shows the natural chain unless it says otherwise.
UniProt P19793: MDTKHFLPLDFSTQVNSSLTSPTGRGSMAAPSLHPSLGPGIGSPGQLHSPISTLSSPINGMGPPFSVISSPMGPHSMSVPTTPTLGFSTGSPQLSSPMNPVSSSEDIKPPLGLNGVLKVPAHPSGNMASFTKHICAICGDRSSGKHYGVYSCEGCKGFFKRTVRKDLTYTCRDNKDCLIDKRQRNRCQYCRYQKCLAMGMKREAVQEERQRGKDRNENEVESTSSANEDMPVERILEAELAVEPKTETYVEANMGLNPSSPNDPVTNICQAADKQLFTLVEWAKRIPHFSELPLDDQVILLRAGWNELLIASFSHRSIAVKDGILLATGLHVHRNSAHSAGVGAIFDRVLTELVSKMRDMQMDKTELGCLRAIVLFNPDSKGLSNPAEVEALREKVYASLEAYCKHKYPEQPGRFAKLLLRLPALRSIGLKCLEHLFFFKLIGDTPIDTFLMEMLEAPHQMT
UniProt Q03181: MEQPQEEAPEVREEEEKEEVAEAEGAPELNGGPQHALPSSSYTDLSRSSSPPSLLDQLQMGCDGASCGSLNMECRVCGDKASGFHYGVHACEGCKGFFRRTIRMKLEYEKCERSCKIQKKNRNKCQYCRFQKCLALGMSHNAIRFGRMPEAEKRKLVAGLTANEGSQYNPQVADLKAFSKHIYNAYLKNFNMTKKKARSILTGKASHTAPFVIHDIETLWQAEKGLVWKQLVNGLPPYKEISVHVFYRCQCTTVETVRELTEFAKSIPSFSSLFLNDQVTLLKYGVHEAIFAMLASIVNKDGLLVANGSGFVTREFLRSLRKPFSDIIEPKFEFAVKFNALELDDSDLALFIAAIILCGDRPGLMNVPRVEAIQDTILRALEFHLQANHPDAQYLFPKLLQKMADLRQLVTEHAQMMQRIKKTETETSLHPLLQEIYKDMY
UniProt P10828: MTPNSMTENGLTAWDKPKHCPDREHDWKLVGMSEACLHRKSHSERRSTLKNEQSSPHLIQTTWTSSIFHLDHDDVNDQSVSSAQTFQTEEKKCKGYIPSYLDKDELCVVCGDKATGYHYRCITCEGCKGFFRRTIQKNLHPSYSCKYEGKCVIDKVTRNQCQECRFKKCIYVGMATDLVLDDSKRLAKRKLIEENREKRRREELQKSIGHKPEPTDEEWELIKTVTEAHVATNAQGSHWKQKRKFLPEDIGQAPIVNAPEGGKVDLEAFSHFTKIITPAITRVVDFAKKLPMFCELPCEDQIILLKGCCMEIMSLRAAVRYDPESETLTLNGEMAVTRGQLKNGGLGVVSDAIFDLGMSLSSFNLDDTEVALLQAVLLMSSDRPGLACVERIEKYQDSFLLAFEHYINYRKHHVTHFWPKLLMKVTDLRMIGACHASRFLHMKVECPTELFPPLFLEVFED
UniProt Q12809: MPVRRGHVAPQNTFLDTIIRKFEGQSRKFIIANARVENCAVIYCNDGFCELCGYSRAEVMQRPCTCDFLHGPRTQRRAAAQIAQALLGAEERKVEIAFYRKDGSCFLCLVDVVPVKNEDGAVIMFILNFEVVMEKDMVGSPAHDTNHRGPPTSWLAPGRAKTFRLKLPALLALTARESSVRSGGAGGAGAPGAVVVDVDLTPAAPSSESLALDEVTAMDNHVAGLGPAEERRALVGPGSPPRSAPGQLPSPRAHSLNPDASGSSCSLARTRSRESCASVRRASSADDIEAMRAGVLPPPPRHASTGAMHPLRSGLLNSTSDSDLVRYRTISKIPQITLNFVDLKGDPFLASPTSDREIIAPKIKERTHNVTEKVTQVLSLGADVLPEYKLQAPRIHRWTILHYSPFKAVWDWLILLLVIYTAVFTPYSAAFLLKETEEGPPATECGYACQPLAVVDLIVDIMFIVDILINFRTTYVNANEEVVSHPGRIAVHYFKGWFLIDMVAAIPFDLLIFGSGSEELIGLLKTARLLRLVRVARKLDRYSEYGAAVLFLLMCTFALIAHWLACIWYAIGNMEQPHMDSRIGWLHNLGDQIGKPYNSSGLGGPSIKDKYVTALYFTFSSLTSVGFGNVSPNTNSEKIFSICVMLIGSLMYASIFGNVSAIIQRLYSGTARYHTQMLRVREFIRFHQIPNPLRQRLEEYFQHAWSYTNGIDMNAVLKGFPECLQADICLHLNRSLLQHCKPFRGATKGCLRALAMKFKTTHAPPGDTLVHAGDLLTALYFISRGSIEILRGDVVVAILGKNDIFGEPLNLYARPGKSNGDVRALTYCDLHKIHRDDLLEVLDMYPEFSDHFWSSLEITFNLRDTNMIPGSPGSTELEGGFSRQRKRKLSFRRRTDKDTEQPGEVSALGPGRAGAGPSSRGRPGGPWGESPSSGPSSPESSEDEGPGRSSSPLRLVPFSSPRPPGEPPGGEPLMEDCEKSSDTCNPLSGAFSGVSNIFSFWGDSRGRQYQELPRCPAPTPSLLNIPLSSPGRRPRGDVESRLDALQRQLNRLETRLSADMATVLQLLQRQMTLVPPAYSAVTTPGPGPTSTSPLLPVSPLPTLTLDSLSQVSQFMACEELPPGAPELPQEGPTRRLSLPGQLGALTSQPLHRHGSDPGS

What was measured:
[1] = molecular target: Bile acid receptor (Homo sapiens) (UniProt Q96RI1); experiment: qHTS assay for small molecule agonists of farnesoid X receptor signaling (AID 588527); conditions: HEK293T FXR-UAS-bla, beta-lactamase ratio, 16 h; activation: hits give high values;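 further: 0% = vehicle basal and 100% = reference agonist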
Outline: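 Agonist-mode beta-lactamase reporter in GeneBLAzer FXR-UAS-bla HEK293T cells, titration up to 92 uM, 16 h exposure at 37 C, CCF4 fluorescence. Response scaled to DMSO (0%) and 100 uM chenodeoxycholic acid (100%), then Hill-fitted for EC50 and efficacy.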

[2] = molecular target: Peroxisome proliferator-activated receptor gamma (Homo sapiens) (UniProt P37231); experiment: qHTS assay for small molecule agonists of peroxisome proliferator-activated receptor gamma signaling (AID 588536; active means well fitted curve in the direction sought with a large enough effect in the signal ratio, with a control signal flat, not every such curve was filed as active; inconclusive means small, poorly fitted or top-dose-only effect, or effect the other way, or a change in a side signal; inactive means no such curve, though single readings can be large or run the other way; the % refers to the signal ratio; further: potency means the concentration at half of the fitted maximal effect;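 on activation: 0% = DMSO basal wells and 100% = rosiglitazone at 2 µM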); conditions: HEK293 PPARg-UAS-bla, beta-lactamase ratio, 16 h; activation: at 76.7 µM (top of the series), percent of rosiglitazone response, DMSO as zero unless noted
Outline: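 This is an agonist-mode beta-lactamase reporter assay in HEK293 PPAR-gamma-UAS-bla cells with 1% charcoal/dextran FBS. Compound titrations ran 16 h at 37 C before CCF4 detection. EC50 and efficacy are Hill fits scaled to 2 uM rosiglitazone (100%) and DMSO basal.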

[3] = molecular target: Retinoic acid receptor RXR-alpha (Homo sapiens) (UniProt P19793); experiment: qHTS assay for small molecule antagonists of retinoid X receptor alpha signaling (AID 588546; active means well fitted inhibition curve with a large enough effect in the signal ratio, with a control signal flat, not every such curve was filed as active; inconclusive means small, poorly fitted or top-dose-only effect, or effect the other way, or a change in a side signal; inactive means no such curve, though single readings can be large or run the other way; the % refers to the signal ratio; further: potency means the concentration at half of the fitted maximal effect;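 on max response: cells stimulated with 9-cis-retinoic acid as agonist; on the % scale 0 is the no-effect control and ±100 the full control effect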); conditions: HEK293T RXRa-UAS-bla, beta-lactamase ratio, antagonist mode
Outline: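 Beta-lactamase reporter inhibition, read as CCF4 fluorescence ratio (ex 405, em 460/530 nm) after 2 h at RT. HEK293T UAS-bla cells, 2500/well, were stimulated with 9-cis-RA at 500 or 100 nM final alongside test compound for 18 h at 37 C.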

[4] = qHTS assay for small molecule agonists of the antioxidant response element (ARE) signaling pathway (AID 651741; active means well fitted activation curve with a large enough effect in the signal ratio; inconclusive means small, poorly fitted or top-dose-only effect, or effect the other way, or a change in a side signal; the % refers to the signal ratio; further: potency means the concentration at half of the fitted maximal effect; on activation: % of control where 0% means no effect); conditions: HepG2 ARE-bla reporter, beta-lactamase FRET ratio, 16 h; activation: at 96 µM (top of the series) unless noted
Outline: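 Reporter: beta-lactamase under ARE, stably in HepG2. Exposure: 16 h, 37 C, compounds delivered in DMSO by pin tool after 5 h cell preincubation. Readout: FRET substrate fluorescence after 2 h at RT.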

[5] = qHTS assay for small molecule activators of the p53 signaling pathway (AID 651743; active means well fitted activation curve with a large enough effect in the signal ratio, not every such curve was filed as active; inconclusive means small, poorly fitted or top-dose-only effect, or a change in a side signal; the % refers to the signal ratio; further: potency means the concentration at half of the fitted maximal effect; on activation: % of control where 0% means no effect); conditions: HCT-116 p53RE-bla, beta-lactamase FRET ratio, 16 h; activation: hits give high values
Outline: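 Agonist-mode quantitative HTS in HCT-116 cells carrying a p53-response-element beta-lactamase reporter; 16 h compound treatment at 37 C, then FRET substrate loading for 2 h at room temperature and fluorescence read.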

[6] = molecular target: Bile acid receptor (Homo sapiens) (UniProt Q96RI1); experiment: qHTS assay for small molecule antagonists of farnesoid X receptor signaling (AID 588526); conditions: HEK293T FXR-UAS-bla, beta-lactamase ratio, antagonist mode; activity change, negative = inhibition: at 76.7 µM (top of the series); further: potency means the concentration at half of the fitted maximal effect; on activity change, negative = inhibition: on the % scale 0 is the no-effect control and ±100 the full control effect
Outline: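 Concentration-response titrations were fitted to the Hill equation for half-maximal inhibition and maximal response, with data normalised to 50 uM chenodeoxycholic acid and DMSO control wells. Cells: FXR-UAS-bla HEK293T, dialyzed FBS.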

[7] = molecular target: Peroxisome proliferator-activated receptor delta (Homo sapiens) (UniProt Q03181); experiment: qHTS assay for small molecule agonists of peroxisome proliferator-activated receptor delta signaling (AID 588534); conditions: HEK293T PPARdelta-UAS-bla, beta-lactamase ratio, 18 h; activation: at 76.7 µM (top of the series); further: potency means the concentration at half of the fitted maximal effect;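 on activation: 0% = DMSO basal wells and 100% = positive control agonist at 10 µM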
Outline: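 Agonist-mode qHTS; reporter cells, 5 hrs 37 C pre-incubation; compound titration, 18 hrs 37 C; CCF4 dye, 2 hrs RT; fluorescence read. EC50/efficacy via Hill fit.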

[8] = molecular target: Peroxisome proliferator-activated receptor delta (Homo sapiens) (UniProt Q03181); experiment: qHTS assay for small molecule antagonists of peroxisome proliferator-activated receptor delta signaling (AID 588535; active means well fitted inhibition curve with a large enough effect in the signal ratio, with a control signal flat, not every such curve was filed as active; inconclusive means small, poorly fitted or top-dose-only effect, or effect the other way, or a change in a side signal; inactive means no such curve, though single readings can be large or run the other way; the % refers to the signal ratio; further: potency means the concentration at half of the fitted maximal effect); conditions: HEK293T PPARd-UAS-bla, beta-lactamase FRET ratio, 18 h; activity change, negative = inhibition: at 76.7 µM (top of the series) unless noted
Outline: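 Inhibition of PPAR-delta response element-driven beta-lactamase expression is measured in HEK293T cells exposed to a compound titration series for 18 hrs at 37 C. Half-maximal inhibition comes from Hill equation fitting.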

[9] = molecular target: Peroxisome proliferator-activated receptor gamma (Homo sapiens) (UniProt P37231); experiment: qHTS assay for small molecule antagonists of peroxisome proliferator-activated receptor gamma signaling (AID 588537; active means well fitted inhibition curve with a large enough effect in the signal ratio, with a control signal flat, not every such curve was filed as active; inconclusive means small, poorly fitted or top-dose-only effect, or effect the other way, or a change in a side signal; the % refers to the signal ratio; further: potency means the concentration at half of the fitted maximal effect); conditions: HEK293 PPARg-UAS-bla, beta-lactamase ratio, antagonist mode; activity, negative = inhibition: at 76.8 µM (top of the series)
Outline: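 Compounds are tested as concentration series for inhibition of rosiglitazone-driven (50 nM) reporter expression in GeneBLAzer PPAR-gamma-UAS-bla HEK293 cells. After 16 h at 37 C, CCF4 substrate is added for 2 h at room temperature and blue/green fluorescence is measured.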

[10] = molecular target: Vitamin D3 receptor (Homo sapiens) (UniProt P11473); experiment: qHTS assay for small molecule antagonists of vitamin D receptor signaling (AID 588541); conditions: HEK293T VDR-UAS-bla, beta-lactamase ratio, antagonist mode; activity change, negative = inhibition: at 76.7 µM (top of the series); further: potency means the concentration at half of the fitted maximal effect;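 on activity change, negative = inhibition: receptor activated by calcitriol during compound treatment; on the % scale 0 is the no-effect control and ±100 the full control effect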
[11] = molecular target: Retinoic acid receptor RXR-alpha (Homo sapiens) (UniProt P19793); experiment: qHTS assay for small molecule agonists of retinoid X receptor alpha signaling (AID 588544); conditions: HEK293T RXRa-UAS-bla, beta-lactamase reporter, 18 h; activation: at 76.7 µM (top of the series) unless noted; further: potency means the concentration at half of the fitted maximal effect;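 on activation: 0% = DMSO basal wells and 100% = reference agonist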
[12] = molecular target: Thyroid hormone receptor beta (Homo sapiens) (UniProt P10828); experiment: qHTS assay for small molecule antagonists of thyroid hormone receptor beta signaling (AID 588547; active means well fitted inhibition curve with a large enough effect in the signal ratio, with a control signal flat, not every such curve was filed as active; inconclusive means small, poorly fitted or top-dose-only effect, or effect the other way, or a change in a side signal; the % refers to the signal ratio; further: potency means the concentration at half of the fitted maximal effect;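 on activity change % (negative = inhibition): cells stimulated with 0.4 nM T3 agonist during compound exposure; on the % scale 0 is the no-effect control and ±100 the full control effect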); conditions: TR-UAS-bla HEK293, beta-lactamase ratio, antagonist mode, 18 h
Outline: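 TR-UAS-bla GripTite HEK293 cells in 2% charcoal/dextran FBS medium were preincubated 4 h at 37 C, given compound (0.59 nM to 92 uM) plus 0.4 nM T3 (final) for 18 h, then CCF4 for 2 h at RT; Hill fit gave IC50.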

[13] = Cellular Toxicity (caspase-3) SK-N-SH (AID 661; active means well fitted curve in the direction sought with a large enough effect; inconclusive means small, poorly fitted or top-dose-only effect, or another doubt; inactive means no such curve, though single readings can be large; an effect the other way counts as inactive or inconclusive;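 further: 0% = DMSO basal and 100% = 10 µM staurosporine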); conditions: SK-N-SH caspase-3 activation, qHTS, DMSO as zero, staurosporine as full; at 91.7 µM (top of the series)
Outline: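 Cells were seeded and incubated 5 hr at 37 °C, dosed with compound over a concentration range for 16 hr, then given Caspase-Glo 3/7 reagent for 1 hr at room temperature before luminescence reading.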

[14] = Cell Viability - LYMP1-003 - Assay at 24 hr (AID 963; active means well fitted curve in the direction sought with a large enough effect; inconclusive means small, poorly fitted or top-dose-only effect, or another doubt; inactive means no such curve, though single readings can be large; an effect the other way counts as inactive or inconclusive;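 further: plate controls were DMSO only for no effect and tetraoctylammonium bromide positive control for full effect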)
Outline: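 Cytotoxicity is scored as a concentration-dependent fall in ATP-linked luciferase signal in human lymphoblastoid LYMP1-003 cells treated 24 hr at 37 C in complete culture medium.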

[15] = molecular target: Voltage-gated inwardly rectifying potassium channel KCNH2 (Homo sapiens) (UniProt Q12809); experiment: qHTS Assay for Small Molecule Inhibitors of the Human hERG Channel Activity (AID 588834; active means well fitted curve in the direction sought with a large enough effect; inconclusive means small, poorly fitted or top-dose-only effect, or another doubt; inactive means no such curve, though single readings can be large; an effect the other way counts as inactive or inconclusive;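 further: top concentration of the series differs between compounds; on the % scale 0 is the no-effect control and ±100 the full control effect; lower thallium flux fluorescence means stronger hERG block; nearly all actives have a fitted effect of over 50% in size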); conditions: U2OS BacMam hERG, FluxOR thallium flux fluorescence; at 92.2 µM (top of the series)
Outline: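 Thallium-flux (FluxOR) read-out on FDSS: fluorescence read 10 s before and 2 min after stimulation buffer. hERG-BacMam-transduced U2OS cells, compound exposure about 10 min. AC50 by standard Hill equation.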

[16] = qHTS assay to identify small molecules that stimulate interleukin-8 (IL-8) secretion (AID 651758; active means well fitted activation curve with a large enough effect in the signal ratio; inconclusive means small, poorly fitted or top-dose-only effect, or effect the other way, or a change in a side signal; the % refers to the signal ratio; further: potency means the concentration at half of the fitted maximal effect; on activation: 0% is about no effect); conditions: HTRF ratio (665/615); activation: at 92.2 µM (top of the series)
Outline: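 Quantitative HTS in THP-1 monocytic cells at 2000 cells per well, with 16 hrs compound incubation at 37 C. IL-8 in the medium was then quantified by HTRF immunoassay, read after 1-3 hrs at room temperature.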

[17] = Cell Viability - LYMP2-012 (AID 982; active means well fitted curve in the direction sought with a large enough effect; inconclusive means small, poorly fitted or top-dose-only effect, or another doubt; inactive means no such curve, though single readings can be large; an effect the other way counts as inactive or inconclusive;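 further: cellular ATP by luciferase luminescence where a drop means cytotoxicity; cells exposed to compound for one day before reading; 0% = DMSO only and full loss = 92 µM tetraoctylammonium bromide; nearly all actives have a fitted effect of over 55% in size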); conditions: LYMP2-012 lymphoblastoid cell viability qHTS; activity change, negative = cytotoxicity: at 92.2 µM (top of the series)
[18] = Cell Viability - LYMP2-024 (AID 988; active means well fitted curve in the direction sought with a large enough effect; inconclusive means small, poorly fitted or top-dose-only effect, or another doubt; inactive means no such curve, though single readings can be large; an effect the other way counts as inactive or inconclusive;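 further: cells exposed to compound for 24 hr at 37 °C; plate controls were DMSO only for no effect and 92 µM tetraoctylammonium bromide for full effect; nearly all actives have a fitted effect of over 60% in size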)
Outline: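 qHTS cytotoxicity, human lymphoblastoid line, complete medium; 24 h cpd treatment, 37 C; CellTiter-Glo ATP luminescence readout; tetraoctylammonium bromide positive control; AC50 via Hill fit.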

[19] = molecular target: Vitamin D3 receptor (Homo sapiens) (UniProt P11473); experiment: qHTS assay for small molecule agonists of vitamin D receptor signaling (AID 588543); conditions: HEK293T VDR-UAS-bla, beta-lactamase ratio, 16 h; activation: at 76.8 µM (top of the series);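 further: 0% = DMSO basal and 100% = reference agonist control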
Outline: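 β-lactamase reporter, VDR-UAS-bla HEK293T, agonist mode. Cells plated 5 h at 37 °C, compound titration 16 h at 37 °C, CCF4 dye 2 h RT, ratio 460/530 nm. Hill fit → EC50, efficacy vs 50 nM 1α,25-(OH)2D3.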

[20] = qHTS assay for small molecule agonists of the antioxidant response element (ARE) signaling pathway measured by Nrf2-dependant transcriptional activity - cell viability counter screen (AID 720653; active means well fitted curve in the direction sought with a large enough effect in the repeat runs; inconclusive means weak or mixed curves; inactive means no such curve, though single readings can be large; an effect the other way counts as inactive or inconclusive; further: potency means the concentration at half of the fitted maximal effect); conditions: ARE-bla HepG2 viability, CellTiter-Glo ATP luminescence, 16 h; max response: hits give low values
Outline: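 ARE-bla HepG2 cells (2,000/well) rested 5 hrs at 37C/5% CO2, then exposed to compounds in DMSO for 16 hrs. Viability was read in the same wells as intracellular ATP by luminescence, 30 min at room temperature after reagent addition.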

[21] = qHTS assay for cell viability of HEK293 cells (AID 743288; active means well fitted curve in the direction sought with a large enough effect; inconclusive means small, poorly fitted or top-dose-only effect, or another doubt; inactive means no such curve, though single readings can be large; an effect the other way counts as inactive or inconclusive; further: on the % scale 0 is the no-effect control and ±100 the full control effect; nearly all actives have a fitted effect of over 50% in size); conditions: ATP luminescence (CellTiter-Glo), 18 h; max response: hits give low values
Outline: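 ATP luminescence (CellTiter-Glo) reports metabolically competent cell number after parental HEK293 cells, 2,000/well, were treated with DMSO-dissolved compounds for 18 h at 37 C; reagent incubation 30 min, room temperature.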

In the case of `CCOP(OCC)OCC`, the activation [1] is reported as inactive: -1.35%, the Potency [2] is reported as “inactive” and the max response [3] is reported as inactive: -9.86%. For the same molecule, the activation [4] was inconclusive: 3.62% and the activation [5] was inactive: 0.684%.

With `[Cu+2].[O-]c1cccc2cccnc12.[O-]c1cccc2cccnc12` the Potency [6] was inconclusive: 25.1 µM [side channel, rising, partial curve, poor fit], the Potency [7] was inconclusive: 11.2 µM [side channel, rising, full curve] and the Potency [8] was inconclusive: 10 µM [falling, full curve]. The Potency [2] was inconclusive: 3.98 µM [falling, full curve], the Potency [9] was inconclusive: 6.31 µM [side channel, rising, full curve, poor fit] and the Potency [10] was inconclusive: 3.98 µM [side channel, rising, full curve, poor fit]. For the same molecule, the Potency [11] was inconclusive: 1.78 µM [side channel, rising, full curve, poor fit], the Potency [3] was inconclusive: 14.1 µM [cytotoxic, side channel, full curve, poor fit] and the Potency [12] was inconclusive: 10 µM [inhibitor, full curve, poor fit].

For `Nc1cc(Cl)cc(Cl)c1`, the caspase-3 activation [13] was inactive: 0.635%, the Potency [14] was “inactive” and the Potency [6] was “inactive”. The activity change % (negative = inhibition) [12] was inconclusive: 7.53%, the activity change, negative = inhibition [15] was inactive: 4.75% and the Potency [4] was inconclusive: 75 µM [activator, partial curve, poor fit]. The Potency [16] was inconclusive: 75 µM [rising, single point].

For `O=[N+]([O-])c1ccc(Cl)c(Cl)c1`, the activity change, negative = cytotoxicity [17] was inconclusive: -31.8% [cytotoxic], the Potency [18] was “inactive” and the Potency [6] was “inactive”. The Potency [7] was “inactive”, the activity change, negative = inhibition [8] was inconclusive: -21.4% and the Potency [19] was “inactive”. For the same molecule, the Potency [4] was inconclusive: 66.8 µM [activator, partial curve, poor fit] and the activation [16] was inconclusive: 21%.

With `CSC1=N[C@@](C)(c2ccccc2)C(=O)N1Nc1ccccc1` the Potency [6] was inconclusive: 31.6 µM [inhibitor, partial curve], the Potency [7] was “inactive” and the Potency [8] was inconclusive: 44.7 µM [side channel, rising, single point]. For the same molecule, the Potency [2] was inconclusive: 28.2 µM [inhibitor, partial curve], the Potency [9] was inconclusive: 39.8 µM [side channel, rising, single point] and the activity change, negative = inhibition [10] was inconclusive: -29.7%. The Potency [11] was “inactive”, the max response [3] was inconclusive: -49.9% and the Potency [5] was inconclusive: 44.7 µM [activator, partial curve]. The Potency [20] was inconclusive: 6.31 µM [cytotoxic, full curve, poor fit] and the max response [21] was inactive: -18%.
